The campaign covered roughly 350,000 compounds. About 220 (0.063%) were called active. Inconclusive means that the source gave no clear call. Such entries were picked first, then a sample of the others. The call rests on the fitted dose curve; in most records, active means well fitted activation curve with a large enough effect; inconclusive means small, poorly fitted or top-dose-only effect; inactive means no such curve, though single readings can be large or run the other way. A potency beside an inconclusive call is a rough fit, not a confirmed value.
Experiment: qHTS for Activators of Integrin-Mediated Alleviation for Muscular Dystrophy; further: nearly all actives have a fitted effect of over 60% in size;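 on activation: 100% = response of the positive control SU9516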
Settings: alpha7betagal myoblasts, beta-gal FDG fluorescence, 48 h; activation: at 38.3 µM (top of the series)
Procedure, shortened: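 alpha7betagal+/- myoblasts (passage 13, 250/well) treated 48 h at 37C with compounds at 1:260 dilution of DMSO stock. Lysed, then beta-galactosidase activity read as FDG fluorescence (ex 480/em 540) after 30 min, with pre-read for autofluorescence.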
For CCn1cnc2cc(NCc3nc4ccccc4n3C)ccc21, the Potency was inconclusive: 31.6 µM [activator, partial curve, poor fit].
With O=C(CSc1ccc2nnc(-c3ccncc3)n2n1)Nc1ccc2c(c1)OCCO2 the Potency was “inactive”.
In the case of COc1ccccc1-c1cc(C(=O)Nc2ccc(F)cc2F)no1, the Potency is reported as “inactive”.
In the case of COCCNC(=S)NCc1ccc2[nH]c3c(c2c1)CCCC3, the Potency is reported as “inactive”.
With Cc1csc(NC(=O)CSc2ncnc3ccccc23)n1 the Potency was “inactive”.
For CCC(=O)N1CCc2cc(S(=O)(=O)CCC(=O)NCc3ccc(C)cc3)ccc21, the Potency was “inactive”.
For C=CCN1c2ccccc2[C@]23C[C@@H](C(=O)OC)N(C(=O)c4cc(C)oc4C)C2=NC(C(=O)OC)=C(C(=O)OC)[C@H]13, the Potency was “inactive”.
For O=c1[nH]c2ccccc2nc1N1CCOCC1, the Potency was “inactive”.
With O=S1(=O)CCC(SCc2nc3sccn3c2Br)C1 (centres undefined) the Potency was inconclusive: 12.6 µM [activator, partial curve, poor fit].
In the case of COc1ccc2nc(NCCO)[nH]c2c1, the Potency is reported as inconclusive: 2 µM [activator, partial curve, poor fit].
With CN(Cc1ccc(N(C)C)cc1)C(=O)c1cc2ccccc2o1 the Potency was “inactive”.
In the case of COC(=O)c1cc(NCc2c(F)cccc2Cl)ccc1N1CCOCC1, the activation is reported as inactive: -5.21% [at 7.66 µM].
For Nc1ccc(N2CCCCC2)c2nonc12, the Potency was “inactive”.
For O=C(NCN1CCOCC1)c1cnccn1, the Potency was inconclusive: 4.47 µM [activator, single point].
For COc1cccc(CNS(=O)(=O)c2cc(Br)ccc2Br)c1, the Potency was “inactive”.
In the case of O=C(NC1CC1)c1ccc(-n2cccc2)cc1, the Potency is reported as inconclusive: 28.2 µM [activator, single point].
For CCc1cccc(NC(=O)C2CCCN(S(=O)(=O)c3cccs3)C2)c1 (centres undefined), the Potency was inconclusive: 2.24 µM [activator, partial curve, poor fit].
With COc1ccc(N(CC(=O)NN=C2CCN(C)CC2)S(=O)(=O)c2ccccc2)c(OC)c1 the Potency was “inactive”.
For O=C(/C=C/c1c(F)cccc1Cl)Nc1cccnc1, the Potency was inconclusive: 5.01 µM [activator, single point].
For COc1cc2c(cc1OC)C(=O)N1[C@H]3c4cc(Cl)ccc4OC[C@@H]3[C@H](c3ccccc3)[C@]1(C)C(=O)N2, the Potency was “inactive”.
In the case of O=C(NC(=S)Nc1ccc(Br)c(Cl)c1)C1CC1, the Potency is reported as “inactive”.
In the case of Cc1c(C)c2ccc(OCC(=O)Nc3ccc(S(N)(=O)=O)cc3)c(C)c2oc1=O, the Potency is reported as inconclusive: 3.55 µM [activator, single point].
With CCCCCCCSc1nnc(-c2ccccc2N)c(=O)[nH]1 the activation was inconclusive: -51.2% [activator].
For Cc1cccc(N2CC(C(=O)OCC(=O)c3ccc(OC(=O)c4cccs4)cc3)CC2=O)c1C (centres undefined), the Potency was “inactive”.
In the case of CCCCOc1ccc(CN=C(N)N)cc1Cl, the Potency is reported as “inactive”.
With Cc1[nH]c2c([N+](=O)[O-])cccc2c1C the Potency was inconclusive: 31.6 µM [activator, single point].
With Cc1ccccc1NC(=O)C[n+]1cc(-c2ccccc2)n2c1CCC2 the Potency was inconclusive: 2.24 µM [activator, partial curve, poor fit].
In the case of Clc1ccc(CNc2ncccn2)cc1, the Potency is reported as inconclusive: 5.01 µM [activator, single point].
For CCCCc1ccc(NC(=S)NCCO)cc1, the Potency was “inactive”.
With CC(=O)c1ccc(NC(=O)CSc2ccc3nnc(-c4cccnc4)n3n2)cc1 the Potency was inconclusive: 0.891 µM [activator, partial curve, poor fit].
For Cc1cc(Cl)c2oc(C(=O)NC(C)c3ccncn3)c(C)c2c1 (centres undefined), the Potency was inconclusive: 3.98 µM [activator, single point].
With Cc1ccc(NC2=C/C(=N/S(=O)(=O)c3cccs3)c3ccccc3C2=O)cc1C the Potency was “inactive”.
For CC(=O)C(C)Oc1cc(C)cc2oc(=O)c(C)c(C)c12 (centres undefined), the Potency was inconclusive: 11.2 µM [activator, partial curve, poor fit].
For COc1ccc(CCNC(=O)c2nn(C)c3c2CS(=O)(=O)c2ccccc2-3)cc1OC, the Potency was active: 4.47 µM.
With O=[N+]([O-])c1ccc(Oc2cnc3ccccc3n2)cc1 the Potency was inconclusive: 12.6 µM [activator, single point].
For CCn1c(SCc2cccc(C(=O)O)c2)nnc1-c1ccc(Cl)cc1, the Potency was inconclusive: 10 µM [activator, partial curve].
With COCCCNCCCCOc1ccc(C)cc1[N+](=O)[O-] the Potency was “inactive”.
With COc1ccccc1N1CCN(c2ncnc3sc(C)c(-c4ccccc4)c23)CC1 the Potency was inconclusive: 2 µM [activator, full curve, poor fit].
In the case of COc1cc2c(cc1OC)C(c1ccccc1F)NCC2 (centres undefined), the Potency is reported as inconclusive: 12.6 µM [activator, single point].
For COc1cc(/C=N/NC(=O)CCN2CCN(C(c3ccccc3)c3ccccc3)CC2)ccc1O, the Potency was inconclusive: 5.01 µM [activator, single point].
For Cc1cccc(NS(=O)(=O)c2ccc(C(=O)NCCCN3CCOCC3)cc2)c1C, the Potency was inconclusive: 3.55 µM [activator, single point].
For CS(=O)(=O)Nc1ccc(C(=O)Nc2ccc(S(=O)(=O)N3CCCC3)cc2)cc1, the Potency was inconclusive: 5.01 µM [activator, single point].
With Cc1ccc(NC(=O)c2sc3nc4c(c(-c5ccco5)c3c2N)CCC4)cc1 the Potency was “inactive”.
With CC(C)OCCCNC(=S)NNC(=O)c1ccc(Cl)c(Cl)c1 the Potency was “inactive”.
In the case of Cc1cc(-c2ccc(Cl)cc2)c2cnn(C(C)C)c2n1, the Potency is reported as inconclusive: 0.891 µM [activator, partial curve, poor fit].
With O=C(c1cccs1)N1CC=C(c2ccccc2)CC1 the Potency was inconclusive: 0.316 µM [activator, partial curve, poor fit].
For Cc1nn(C(C)C(=O)N2CCOCC2)c(=O)c2nn(-c3ccccc3)c(C)c12 (centres undefined), the Potency was inconclusive: 11.2 µM [activator, single point].
For Cn1c(N)c(C(C[N+](=O)[O-])c2ccccc2Cl)c(=O)n(C)c1=O (centres undefined), the Potency was “inactive”.
With Cc1ccc(S(=O)(=O)N2CCN(C(=O)COc3ccc(Br)cc3)CC2)cc1 the Potency was inconclusive: 12.6 µM [activator, single point].

— PubChem BioAssay AID624291 (National Center for Advancing Translational Sciences (NCATS), 2012)
Potency means the concentration at half of the fitted maximal effect.
